Laboratory results published in the supplement of paper PMC7666118.
This is one part of the list.

Chains of the proteins cited; added tags and fusions are not shown. Lines headed by an entry give the natural chain unless they say otherwise; changes in a name come on top.
UniProt Q13217: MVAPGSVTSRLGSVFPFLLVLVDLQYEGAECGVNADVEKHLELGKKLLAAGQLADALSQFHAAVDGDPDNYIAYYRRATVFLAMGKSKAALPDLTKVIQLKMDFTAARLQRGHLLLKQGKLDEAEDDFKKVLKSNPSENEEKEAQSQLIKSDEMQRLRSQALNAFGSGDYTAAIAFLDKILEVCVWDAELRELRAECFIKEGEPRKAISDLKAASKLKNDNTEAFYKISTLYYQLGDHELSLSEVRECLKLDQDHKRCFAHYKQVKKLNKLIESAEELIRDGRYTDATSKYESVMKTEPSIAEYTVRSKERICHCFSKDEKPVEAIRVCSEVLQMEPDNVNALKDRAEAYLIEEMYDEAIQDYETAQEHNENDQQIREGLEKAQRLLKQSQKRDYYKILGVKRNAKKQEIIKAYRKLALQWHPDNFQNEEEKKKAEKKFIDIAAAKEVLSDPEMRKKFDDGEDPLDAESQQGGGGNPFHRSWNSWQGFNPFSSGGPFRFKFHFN
UniProt Q9H9B1: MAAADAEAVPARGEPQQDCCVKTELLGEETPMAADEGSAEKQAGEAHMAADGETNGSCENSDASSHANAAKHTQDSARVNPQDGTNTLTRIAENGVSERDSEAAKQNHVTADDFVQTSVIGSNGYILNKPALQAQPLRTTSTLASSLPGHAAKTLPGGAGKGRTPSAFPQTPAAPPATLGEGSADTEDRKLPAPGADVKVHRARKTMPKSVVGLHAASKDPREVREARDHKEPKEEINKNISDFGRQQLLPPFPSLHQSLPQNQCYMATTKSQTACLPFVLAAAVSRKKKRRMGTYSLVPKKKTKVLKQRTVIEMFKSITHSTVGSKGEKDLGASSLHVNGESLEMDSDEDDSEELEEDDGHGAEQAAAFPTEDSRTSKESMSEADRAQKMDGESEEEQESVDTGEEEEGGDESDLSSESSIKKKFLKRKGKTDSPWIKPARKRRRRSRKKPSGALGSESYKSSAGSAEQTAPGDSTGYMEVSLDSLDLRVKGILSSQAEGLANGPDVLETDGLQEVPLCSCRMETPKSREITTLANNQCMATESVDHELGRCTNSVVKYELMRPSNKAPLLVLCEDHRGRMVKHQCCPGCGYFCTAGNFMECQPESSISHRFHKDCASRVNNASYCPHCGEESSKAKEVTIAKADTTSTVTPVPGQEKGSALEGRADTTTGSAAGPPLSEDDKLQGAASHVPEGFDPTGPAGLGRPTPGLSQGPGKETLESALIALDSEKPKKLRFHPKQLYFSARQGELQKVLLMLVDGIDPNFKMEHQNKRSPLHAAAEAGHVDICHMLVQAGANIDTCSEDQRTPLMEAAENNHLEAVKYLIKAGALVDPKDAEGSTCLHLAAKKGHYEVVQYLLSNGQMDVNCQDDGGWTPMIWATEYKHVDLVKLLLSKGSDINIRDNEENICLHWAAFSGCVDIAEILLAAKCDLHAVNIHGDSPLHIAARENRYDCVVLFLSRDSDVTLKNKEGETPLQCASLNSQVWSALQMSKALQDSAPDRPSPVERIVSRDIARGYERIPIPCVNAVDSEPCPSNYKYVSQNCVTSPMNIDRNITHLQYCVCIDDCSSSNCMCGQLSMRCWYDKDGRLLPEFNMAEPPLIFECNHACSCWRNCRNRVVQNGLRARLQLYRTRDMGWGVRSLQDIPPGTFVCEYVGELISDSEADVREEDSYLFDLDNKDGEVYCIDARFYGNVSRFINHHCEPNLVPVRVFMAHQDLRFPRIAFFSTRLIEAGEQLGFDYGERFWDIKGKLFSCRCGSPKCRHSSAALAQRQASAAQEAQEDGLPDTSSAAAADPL
UniProt Q9BZQ6: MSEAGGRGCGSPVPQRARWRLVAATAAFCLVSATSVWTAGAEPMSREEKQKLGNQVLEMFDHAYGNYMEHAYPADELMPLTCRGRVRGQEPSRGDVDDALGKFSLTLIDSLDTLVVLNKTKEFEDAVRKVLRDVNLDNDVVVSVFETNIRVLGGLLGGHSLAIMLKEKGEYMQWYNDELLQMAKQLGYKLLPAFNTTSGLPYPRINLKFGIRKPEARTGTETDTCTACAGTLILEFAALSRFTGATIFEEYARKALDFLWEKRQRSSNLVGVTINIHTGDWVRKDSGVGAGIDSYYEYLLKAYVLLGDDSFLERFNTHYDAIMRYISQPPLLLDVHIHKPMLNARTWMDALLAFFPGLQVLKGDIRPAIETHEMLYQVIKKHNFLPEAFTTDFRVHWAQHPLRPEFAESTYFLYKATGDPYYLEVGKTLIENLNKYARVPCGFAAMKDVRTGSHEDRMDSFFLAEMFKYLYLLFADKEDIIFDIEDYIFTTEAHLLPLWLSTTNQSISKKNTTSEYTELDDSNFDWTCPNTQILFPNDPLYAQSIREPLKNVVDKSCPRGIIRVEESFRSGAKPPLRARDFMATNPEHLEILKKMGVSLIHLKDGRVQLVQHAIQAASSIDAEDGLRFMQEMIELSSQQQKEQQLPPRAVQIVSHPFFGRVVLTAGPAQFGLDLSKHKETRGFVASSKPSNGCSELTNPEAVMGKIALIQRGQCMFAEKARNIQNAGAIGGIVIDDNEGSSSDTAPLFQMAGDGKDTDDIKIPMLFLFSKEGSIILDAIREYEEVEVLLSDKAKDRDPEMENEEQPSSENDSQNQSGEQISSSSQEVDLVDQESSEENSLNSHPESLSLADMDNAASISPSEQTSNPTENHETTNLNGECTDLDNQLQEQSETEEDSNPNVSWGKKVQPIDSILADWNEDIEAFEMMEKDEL
UniProt Q99848: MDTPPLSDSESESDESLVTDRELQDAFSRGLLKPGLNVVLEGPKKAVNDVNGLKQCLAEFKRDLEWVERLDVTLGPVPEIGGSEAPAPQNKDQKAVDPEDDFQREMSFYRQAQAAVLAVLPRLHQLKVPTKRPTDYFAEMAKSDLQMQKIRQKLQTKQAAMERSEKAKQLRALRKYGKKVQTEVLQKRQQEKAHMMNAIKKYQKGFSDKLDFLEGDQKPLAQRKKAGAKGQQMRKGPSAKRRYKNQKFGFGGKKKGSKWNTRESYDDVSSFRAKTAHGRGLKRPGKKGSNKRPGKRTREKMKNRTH
UniProt Q96DA6: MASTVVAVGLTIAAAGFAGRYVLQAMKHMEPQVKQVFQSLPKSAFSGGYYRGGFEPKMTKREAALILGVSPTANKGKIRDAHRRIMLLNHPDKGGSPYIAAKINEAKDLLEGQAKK
UniProt Q8IV48: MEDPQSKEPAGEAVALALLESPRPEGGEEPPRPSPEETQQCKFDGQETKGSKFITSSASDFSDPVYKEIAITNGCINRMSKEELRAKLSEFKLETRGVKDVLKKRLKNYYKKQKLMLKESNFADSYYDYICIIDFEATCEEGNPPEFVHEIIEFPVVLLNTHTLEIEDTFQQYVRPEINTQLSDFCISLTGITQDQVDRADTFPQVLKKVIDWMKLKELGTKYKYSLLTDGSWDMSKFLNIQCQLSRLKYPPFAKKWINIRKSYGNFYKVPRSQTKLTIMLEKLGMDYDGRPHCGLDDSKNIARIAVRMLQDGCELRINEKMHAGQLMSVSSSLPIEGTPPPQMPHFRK
UniProt Q6Y2X3: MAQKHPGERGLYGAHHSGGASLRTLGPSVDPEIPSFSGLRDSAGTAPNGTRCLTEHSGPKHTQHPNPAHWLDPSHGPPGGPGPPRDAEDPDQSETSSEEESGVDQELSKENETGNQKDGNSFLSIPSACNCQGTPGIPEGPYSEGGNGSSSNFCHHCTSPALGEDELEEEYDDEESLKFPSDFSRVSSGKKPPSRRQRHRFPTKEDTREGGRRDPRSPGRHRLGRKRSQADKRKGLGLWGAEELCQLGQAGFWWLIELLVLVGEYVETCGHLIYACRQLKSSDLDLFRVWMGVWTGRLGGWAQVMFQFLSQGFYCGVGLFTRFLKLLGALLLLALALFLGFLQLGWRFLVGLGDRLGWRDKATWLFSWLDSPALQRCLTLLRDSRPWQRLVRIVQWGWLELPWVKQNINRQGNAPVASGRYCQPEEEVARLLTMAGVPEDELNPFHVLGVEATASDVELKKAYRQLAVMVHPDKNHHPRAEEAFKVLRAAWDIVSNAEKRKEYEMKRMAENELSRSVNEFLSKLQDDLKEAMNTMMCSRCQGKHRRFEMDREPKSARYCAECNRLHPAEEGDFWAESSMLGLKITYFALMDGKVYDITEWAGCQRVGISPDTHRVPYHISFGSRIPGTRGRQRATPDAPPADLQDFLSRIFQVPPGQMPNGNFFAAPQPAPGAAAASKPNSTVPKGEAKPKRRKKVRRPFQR
UniProt Q6P2E9: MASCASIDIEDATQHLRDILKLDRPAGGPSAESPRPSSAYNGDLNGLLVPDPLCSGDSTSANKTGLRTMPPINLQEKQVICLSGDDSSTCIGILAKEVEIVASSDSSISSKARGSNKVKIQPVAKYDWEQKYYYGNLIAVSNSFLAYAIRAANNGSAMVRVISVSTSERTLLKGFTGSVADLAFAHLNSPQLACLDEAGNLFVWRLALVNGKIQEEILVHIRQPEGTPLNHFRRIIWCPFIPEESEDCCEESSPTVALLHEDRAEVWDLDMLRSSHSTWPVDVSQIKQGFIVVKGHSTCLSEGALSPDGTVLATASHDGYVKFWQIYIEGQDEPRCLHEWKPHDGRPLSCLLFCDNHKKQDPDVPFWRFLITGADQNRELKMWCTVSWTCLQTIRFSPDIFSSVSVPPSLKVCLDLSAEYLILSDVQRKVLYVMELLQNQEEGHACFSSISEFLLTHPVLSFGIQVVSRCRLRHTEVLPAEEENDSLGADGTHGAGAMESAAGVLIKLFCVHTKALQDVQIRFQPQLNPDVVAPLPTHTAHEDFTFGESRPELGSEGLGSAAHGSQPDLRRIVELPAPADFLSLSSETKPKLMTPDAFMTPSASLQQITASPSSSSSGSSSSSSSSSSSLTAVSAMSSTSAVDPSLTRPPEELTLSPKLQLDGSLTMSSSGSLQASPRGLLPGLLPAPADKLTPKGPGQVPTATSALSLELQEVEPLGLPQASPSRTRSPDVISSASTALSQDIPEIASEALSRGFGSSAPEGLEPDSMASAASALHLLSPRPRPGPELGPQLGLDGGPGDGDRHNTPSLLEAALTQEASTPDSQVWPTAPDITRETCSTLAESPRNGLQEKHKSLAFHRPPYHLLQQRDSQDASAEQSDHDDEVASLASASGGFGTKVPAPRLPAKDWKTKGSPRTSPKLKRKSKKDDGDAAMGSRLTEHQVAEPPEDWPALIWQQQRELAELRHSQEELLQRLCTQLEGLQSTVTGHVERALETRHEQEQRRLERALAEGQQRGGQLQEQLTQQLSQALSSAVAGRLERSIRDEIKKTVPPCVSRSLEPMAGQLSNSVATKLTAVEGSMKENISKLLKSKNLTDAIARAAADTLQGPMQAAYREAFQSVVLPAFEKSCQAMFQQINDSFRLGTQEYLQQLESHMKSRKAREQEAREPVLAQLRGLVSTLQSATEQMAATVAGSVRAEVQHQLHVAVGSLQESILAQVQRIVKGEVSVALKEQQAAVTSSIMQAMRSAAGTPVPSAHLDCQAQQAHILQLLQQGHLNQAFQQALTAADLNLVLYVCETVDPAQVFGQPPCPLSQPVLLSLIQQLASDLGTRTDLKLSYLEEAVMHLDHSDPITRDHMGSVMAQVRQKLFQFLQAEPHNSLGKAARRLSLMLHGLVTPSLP

Each target was assayed with COc1ccc(Cn2ccc3ccc(C(=O)NO)cc32)cc1 (assay: dose-dependent thermal stabilisation call (2D-TPP, DLPTP, 10% FDR) (binary (1 = stabilised)); higher = stabilised by the compound). Details: system: HL-60 intact cells; concentration range 0.04-10 µM.

Target	dose-dependent thermal stabilisation call
DNAJC3 (UniProt Q13217)	inactive: 0
EHMT1 (UniProt Q9H9B1)	inactive: 0
ENO1 (UniProt P06733)	inactive: 0
EIF5A2 (UniProt Q9GZV4)	inactive: 0
EHD4 (UniProt Q9H223)	inactive: 0
DNM2 (UniProt P50570)	inactive: 0
EDEM3 (UniProt Q9BZQ6)	inactive: 0
EIF2B3 (UniProt Q9NR50)	inactive: 0
EBNA1BP2 (UniProt Q99848)	inactive: 0
DIS3L2 (UniProt Q8IYB7)	inactive: 0
ERO1L (UniProt Q96HE7)	inactive: 0
ERH (UniProt P84090)	inactive: 0
EIF2B4 (UniProt Q9UI10)	inactive: 0
DRG2 (UniProt P55039)	inactive: 0
EIF1 (UniProt P41567)	inactive: 0
ENTPD6 (UniProt O75354)	inactive: 0
EIF3A (UniProt Q14152)	inactive: 0
EFNB2 (UniProt P52799)	inactive: 0
DYNC2H1 (UniProt Q8NCM8)	inactive: 0

No new results follow: an excerpt of the list.
Target	dose-dependent thermal stabilisation call
DIS3L2 (UniProt Q8IYB7)	inactive: 0
ERO1L (UniProt Q96HE7)	inactive: 0
ERH (UniProt P84090)	inactive: 0
EIF2B4 (UniProt Q9UI10)	inactive: 0
DRG2 (UniProt P55039)	inactive: 0
EIF1 (UniProt P41567)	inactive: 0
ENTPD6 (UniProt O75354)	inactive: 0
EIF3A (UniProt Q14152)	inactive: 0

(listing goes on)

Target	dose-dependent thermal stabilisation call
DTNBP1 (UniProt Q96EV8)	inactive: 0
ERF (UniProt P50548)	inactive: 0
DNMT3A (UniProt Q9Y6K1)	inactive: 0
ELOVL5 (UniProt Q9NYP7)	inactive: 0
ELMO1 (UniProt Q92556)	inactive: 0
DSCR3 (UniProt O14972)	inactive: 0
DNAJC19 (UniProt Q96DA6)	inactive: 0
DMXL1 (UniProt Q9Y485)	inactive: 0
EDC3 (UniProt Q96F86)	inactive: 0
E2F3 (UniProt O00716)	inactive: 0
ELAVL1 (UniProt Q15717)	inactive: 0
ERI1 (UniProt Q8IV48)	inactive: 0
EFTUD2 (UniProt Q15029)	inactive: 0
EIF3C (UniProt Q99613)	inactive: 0
DNAJC14 (UniProt Q6Y2X3)	inactive: 0
DIS3 (UniProt Q9Y2L1)	inactive: 0
ERCC8 (UniProt Q13216)	inactive: 0
EDC4 (UniProt Q6P2E9)	inactive: 0
